Data published in patent US8975259B2, “Compositions and methods for inhibiting G protein signaling” (University of Rochester, priority 2007, dated 2015).
Values joined by “and” are separate entries in the source; they are usually repeats but may differ in a detail not shown here. Identical values can stand only once.

What was measured:
[1] = system: opioid-induced antinociception in mice; test: 55° C. warm-water tail-flick antinociception; assay type: in vivo, mouse
[2] = system: acute morphine antinociceptive tolerance in mice; test: Acute morphine antinociceptive tolerance (repeated i.c.v. dosing, tail-flick); assay type: in vivo, mouse; details: morphine alone

## CN1CC[C@]23c4c5ccc(O)c4O[C@H]2[C@@H](O)C=C[C@H]3[C@H]1C5.O=S(=O)(O)O [morphine, Morphine sulfate]
[1]; Mus musculus, sc, read-out: ED50 of morphine alone, systemic
  ED50: 5 mg/kg
[1]; mouse, in vivo, sulfate
  ED50 of opioid agonist alone: 0.74 nmol and 0.743 (0.341-1.62) nmol
[2]; 4 hr
  ED50 of i.c.v. morphine: 4.9 nmol
[2]; 6 hr
  ED50 of i.c.v. morphine: 9.6 nmol
[2]; time 0
  ED50 of i.c.v. morphine: 0.59 nmol
